Laboratory results: PubChem BioAssay AID1259254 (NCATS, 2017)
Aim: 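Finding genes that stop cells copying their DNA twice in one cycle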 (primary screen). Cells: human HCT116 colorectal cancer cells. Knock-down reagent: single siRNA against human genes. Time to read-out: 3 days. Measured: 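Imaged Hoechst DNA stain sorts each cell into a cycle phase by DNA amount; per plate, G2 fraction set to 0% for non-targeting and 100% for GMNN siRNA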. Reading the numbers: G2 robust z-score and G2 cells, % of GMNN control: higher = more G2 cells, more excess DNA replication. Call rule: 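Active siRNAs have a G2 robust z of 5 or more median absolute deviations over the median, which in these data means about 38% or higher of GMNN control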.
Here is one part, drawn at random, of about 59,000 reagents tested. Of all reagents, about 1,550 (2.6%) got an active call. 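G2 share is only a proxy for re-replication; each gene was hit by three separate siRNAs, and active genes were retested.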 Reagents against one gene are numbered here. Further read-outs or replicates are left out here. Not stated in the record: the amount of reagent.

Against PNLIPRP1 (pancreatic lipase related protein 1) #1, the values are G2 robust z-score 0.279; G2 cells, % of GMNN control 4.93; inactive. PNLIPRP1 (pancreatic lipase related protein 1) #2 scored G2 robust z-score 1.68; G2 cells, % of GMNN control 14.8; inactive. After knock-down of PNLIPRP1 (pancreatic lipase related protein 1) #3, the record shows G2 robust z-score 3.04; G2 cells, % of GMNN control 24.3; inactive. HSFY1P1 (HSFY1 pseudogene 1) #1 gave G2 robust z-score -0.993; G2 cells, % of GMNN control -4.02; inactive. HSFY1P1 (HSFY1 pseudogene 1) #2 showed G2 robust z-score 1.07; G2 cells, % of GMNN control 10.5; inactive. With knock-down of HSFY1P1 (HSFY1 pseudogene 1) #3 the results were G2 robust z-score 2.88; G2 cells, % of GMNN control 23.2; inactive.

For POLR2H (RNA polymerase II, I and III subunit H) #1, the values are G2 robust z-score 6; G2 cells, % of GMNN control 45.2; active. Depletion of POLR2H (RNA polymerase II, I and III subunit H) #2 resulted in: G2 robust z-score 3.24; G2 cells, % of GMNN control 25.8; inactive. Against POLR2H (RNA polymerase II, I and III subunit H) #3, the entry reads G2 robust z-score 6.15; G2 cells, % of GMNN control 46.2; active. After knock-down of BPIFC (BPI fold containing family C) #1, the screen gave G2 robust z-score -0.0131; G2 cells, % of GMNN control 2.88; inactive. After knock-down of BPIFC (BPI fold containing family C) #2 the results were G2 robust z-score -0.477; G2 cells, % of GMNN control -0.391; inactive. Depletion of BPIFC (BPI fold containing family C) #3 came out at: G2 robust z-score -1.29; G2 cells, % of GMNN control -6.13; inactive.

Depletion of DNAJC15 (DnaJ heat shock protein family (Hsp40) member C15) #1 resulted in: G2 robust z-score -0.511; G2 cells, % of GMNN control -0.629; inactive. With knock-down of DNAJC15 (DnaJ heat shock protein family (Hsp40) member C15) #2, the record shows G2 robust z-score 0.126; G2 cells, % of GMNN control 3.86; inactive. Against DNAJC15 (DnaJ heat shock protein family (Hsp40) member C15) #3, the entry reads G2 robust z-score 0.362; G2 cells, % of GMNN control 5.51; inactive. Against PIGYP1 (PIGY pseudogene 1) #1, the entry reads G2 robust z-score 0.0491; G2 cells, % of GMNN control 3.31; inactive. PIGYP1 (PIGY pseudogene 1) #2 showed G2 robust z-score 0.772; G2 cells, % of GMNN control 8.4; inactive. With knock-down of PIGYP1 (PIGY pseudogene 1) #3 the results were G2 robust z-score -0.389; G2 cells, % of GMNN control 0.233; inactive.

After knock-down of NDUFC1 (NADH:ubiquinone oxidoreductase subunit C1) #1 the results were G2 robust z-score -0.553; G2 cells, % of GMNN control -0.924; inactive. NDUFC1 (NADH:ubiquinone oxidoreductase subunit C1) #2 gave G2 robust z-score -0.593; G2 cells, % of GMNN control -1.21; inactive. For NDUFC1 (NADH:ubiquinone oxidoreductase subunit C1) #3 the deposit lists G2 robust z-score 0.258; G2 cells, % of GMNN control 4.78; inactive. Knock-down of GBF1 #1 came out at: G2 robust z-score -1.04; G2 cells, % of GMNN control -4.32; inactive. Knock-down of GBF1 #2 came out at: G2 robust z-score -0.874; G2 cells, % of GMNN control -3.18; inactive. For GBF1 #3 the deposit lists G2 robust z-score 0.6; G2 cells, % of GMNN control 7.19; inactive.

Silencing of PCDHGA2 (protocadherin gamma subfamily A, 2) #1 gave: G2 robust z-score 1.8; G2 cells, % of GMNN control 15.6; inactive. With knock-down of PCDHGA2 (protocadherin gamma subfamily A, 2) #2, the screen gave G2 robust z-score -0.816; G2 cells, % of GMNN control -2.78; inactive. Silencing of PCDHGA2 (protocadherin gamma subfamily A, 2) #3 resulted in: G2 robust z-score -0.592; G2 cells, % of GMNN control -1.2; inactive. With knock-down of WHR1 (winged helix repair factor 1) #1, the record shows G2 robust z-score -1.29; G2 cells, % of GMNN control -6.1; inactive. Knock-down of WHR1 (winged helix repair factor 1) #2 gave: G2 robust z-score -0.0796; G2 cells, % of GMNN control 2.41; inactive. Depletion of WHR1 (winged helix repair factor 1) #3 came out at: G2 robust z-score -1.14; G2 cells, % of GMNN control -5.03; inactive.

Single entries from above:
Value of DNAJC15 (DnaJ heat shock protein family (Hsp40) member C15) #3 under “G2 cells, % of GMNN control”: 5.51
Value for HSFY1P1 (HSFY1 pseudogene 1) #1 in “G2 robust z-score”: -0.993
Entry for PIGYP1 (PIGY pseudogene 1) #1 in “G2 robust z-score”: 0.0491
PIGYP1 (PIGY pseudogene 1) #2, G2 robust z-score: 0.772
